The values below come from PubChem BioAssay AID230 (DTP/NCI, 2004).

In the assay the test system is C3H/He mice, Gardner lymphosarcoma 6C3HED ip, survival T/C. Briefly: NCI In Vivo Anticancer Drug Screen. Data for tumor model Lymphosarcoma Gardner 6C3HED (intraperitoneal) in C3H/He mice. The following applies: higher T/C = longer survival. Here is the method:
The antitumor activity of compounds was measured in mice bearing transplantable tumors. Survival or tumor size were measured and the results are expressed as the measurement made in the treated group (T) divided by the measurement made in the vehicle treated control group (C). The tumor model used in this assay is Lymphosarcoma Gardner 6C3HED (intraperitoneal) in C3H/He mice

[1] abbreviates: T/C endpoint: survival time, mean or median, dose: 1.0 mg/kg/injection, schedule: Q01DX010 (ip), vehicle: saline.
Where [2] appears, read: T/C endpoint: survival time, mean or median, dose: 500.0 micrograms/kg/injection, schedule: Q01DX010 (ip), vehicle: saline.
Where [3] appears, read: T/C endpoint: survival time, mean or median, dose: 50.0 mg/kg/injection, schedule: Q01DX010 (ip), vehicle: saline.
[4] abbreviates: T/C endpoint: survival time, mean or median, dose: 100.0 mg/kg/injection, schedule: Q01DX010 (ip), vehicle: saline.
The mark [5] stands for this setting: T/C endpoint: survival time, mean or median, dose: 200.0 mg/kg/injection, schedule: Q01DX010 (ip), vehicle: saline.
Setting [6] is: T/C endpoint: survival time, mean or median, dose: 400.0 mg/kg/injection, schedule: Q01DX010 (ip), vehicle: saline.
[7] abbreviates: T/C endpoint: survival time, mean or median, dose: 8.0 mg/kg/injection, schedule: Q01DX010 (ip), vehicle: saline.
The mark [8] stands for this setting: T/C endpoint: survival time, mean or median, dose: 16.0 mg/kg/injection, schedule: Q01DX010 (ip), vehicle: saline.
Where [9] appears, read: T/C endpoint: survival time, mean or median, dose: 2.0 mg/kg/injection, schedule: Q01DX010 (ip), vehicle: saline.
Where [10] appears, read: T/C endpoint: survival time, mean or median, dose: 25.0 mg/kg/injection, schedule: Q01DX010 (ip), vehicle: saline.
The mark [11] stands for this setting: T/C endpoint: survival time, mean or median, dose: 10.0 mg/kg/injection, schedule: Q01DX010 (ip), vehicle: saline.
Where [12] appears, read: T/C endpoint: survival time, mean or median, dose: 64.0 mg/kg/injection, schedule: Q01DX010 (ip), vehicle: saline.

The list shows only some results of the screen, not a fair sample: it is rich in T/C values a quarter to a half above the control, in often repeated tests (any T/C) and in doses without a T/C. Other doses and runs of a compound stand elsewhere. T/C: endpoint of the treated group in % of that of the vehicle group. Some entries give survivors of the animals treated and no T/C: the source files T/C as zero there, which appears to mark a toxic dose or a test without result, not a measured value. Some doses without a T/C left all or most animals alive at the check, yet need not have been tolerated: survival well below the control is almost never listed, so the zero probably covers shortened survival too. Counts of survivors are from the toxicity check (mostly the fifth day) where no day follows; animals may have died later. Schedule codes are those of the source, read here as Q, the interval in days (D) or hours (H), X, the number of doses. Some entries hold several experiments; the results are listed from low to high. Counts like (3×) count equal records among those shown. For survival time, the PubChem record calls one and a half times the control and up active, and a quarter to a half above the control has no call in these data; cut-offs in other NCI protocols can differ.

As for `CN(C)[C@@H]1C(=O)C(C(N)=O)=C(O)[C@@]2(O)C(=O)C3=C(O)c4c(O)cccc4C[C@H]3C[C@@H]12`, the survivor count runs as follows: (T/C endpoint: survival time, mean or median, dose: 1.88 mg/kg/injection, schedule: Q01DX010 (ip), vehicle: saline) 6 of 6; (T/C endpoint: survival time, mean or median, dose: 30.0 mg/kg/injection, schedule: Q01DX010 (ip), vehicle: saline) 6 of 6; (T/C endpoint: survival time, mean or median, dose: 60.0 mg/kg/injection, schedule: Q01DX010 (ip), vehicle: saline) 5 of 6; (T/C endpoint: survival time, mean or median, dose: 120.0 mg/kg/injection, schedule: Q01DX010 (ip), vehicle: saline) 0 of 6.

Turning to `CC(=O)NC1=C(N2CC2)C(=O)C(NC(C)=O)=C(N2CC2)C1=O`, the survivor count is, setting by setting: under setting [1], 6 of 6; under setting [2], 6 of 6.

Take `O=C1C(NC(=O)C2CCCCC2)=C(N2CC2)C(=O)C(NC(=O)C2CCCCC2)=C1N1CC1`: the survivor count is on record as 6 of 6 under setting [3], 6 of 6 under setting [4], 6 of 6 under setting [5] and 6 of 6 under setting [6].

As to `Nc1nc2n[nH]nc2c(=O)[nH]1`, the T/C by setting is: (T/C endpoint: survival time, mean or median, dose: 25.0 mg/kg/injection, schedule: Q01DX010 (ip), vehicle: alkali diluted with saline) 130 % of control; (T/C endpoint: survival time, mean or median, dose: 100.0 mg/kg/injection, schedule: Q01DX010 (ip), vehicle: alkali diluted with saline) 127 % of control; (T/C endpoint: survival time, mean or median, dose: 200.0 mg/kg/injection, schedule: Q01DX010 (ip), vehicle: alkali diluted with saline) 135 % of control.

`C=CC(CN1CC1)OC(C)=O` (centres undefined): the survivor count reads like this: under setting [7], 6 of 6; under setting [8], 6 of 6.

For the compound `CC(CCC(C)OS(C)(=O)=O)OS(C)(=O)=O` (centres undefined), the survivor count is, setting by setting: under setting [8], 6 of 6; (T/C endpoint: survival time, mean or median, dose: 32.0 mg/kg/injection, schedule: Q01DX010 (ip), vehicle: saline) 6 of 6.

Regarding `CN(Cc1cnc2nc(N)nc(N)c2n1)c1ccc(C(=O)N[C@@H](CCC(=O)O)C(=O)O)cc1`, the survivor count reads like this: (T/C endpoint: median survival time, dose: 0.5 mg/kg/injection, schedule: Q01DX009 (ip), vehicle: sodium bicarbonate) 6 of 6; (T/C endpoint: median survival time, dose: 2.0 mg/kg/injection, schedule: Q01DX009 (ip), vehicle: sodium bicarbonate) 5 of 6 and 6 of 6 (2×).

In the case of `Nc1nc(F)nc2c1ncn2C1OC(CO)C(O)C1O` (centres undefined), the survivor count is, setting by setting: under setting [9], 6 of 6; (T/C endpoint: survival time, mean or median, dose: 4.0 mg/kg/injection, schedule: Q01DX010 (ip), vehicle: saline) 6 of 6; (T/C endpoint: survival time, mean or median, dose: 62.5 micrograms/kg/injection, schedule: Q01DX010 (ip), vehicle: saline) 6 of 6; (T/C endpoint: survival time, mean or median, dose: 125.0 micrograms/kg/injection, schedule: Q01DX010 (ip), vehicle: saline) 6 of 6; under setting [2], 6 of 6.

Consider `Nc1ncnc2c1ncn2C1OC(CO)C(O)C1O` (centres undefined), for which the survivor count is 10 of 10 (T/C endpoint: median survival time, dose: 1.56 mg/kg/injection, schedule: Q11DX018 (ip), vehicle: saline with Tween-80); 10 of 10 (T/C endpoint: median survival time, dose: 3.13 mg/kg/injection, schedule: Q11DX018 (ip), vehicle: saline with Tween-80); 10 of 10 (T/C endpoint: median survival time, dose: 6.25 mg/kg/injection, schedule: Q11DX018 (ip), vehicle: saline with Tween-80).

`Nc1ncnc2c1ccn2C1OC(CO)C(O)C1O` (centres undefined): the survivor count reads like this: (T/C endpoint: survival time, mean or median, dose: 0.5 mg/kg/injection, schedule: Q01DX010 (ip), vehicle: saline) 6 of 6; under setting [1], 5 of 6; under setting [9], 5 of 6.

As to `CCN(CCNc1ccc(C)c2sc3cc(Cl)ccc3c(=O)c12)CC(C)O` (centres undefined), the survivor count runs as follows: (T/C endpoint: survival time, mean or median, dose: 31.3 mg/kg/injection, schedule: Q01DX010 (ip), vehicle: saline) 5 of 6; (T/C endpoint: survival time, mean or median, dose: 62.5 mg/kg/injection, schedule: Q01DX010 (ip), vehicle: saline) 6 of 6; (T/C endpoint: survival time, mean or median, dose: 125.0 mg/kg/injection, schedule: Q01DX010 (ip), vehicle: saline) 6 of 6; (T/C endpoint: survival time, mean or median, dose: 250.0 mg/kg/injection, schedule: Q01DX010 (ip), vehicle: saline) 3 of 6 and 4 of 6; (T/C endpoint: survival time, mean or median, dose: 500.0 mg/kg/injection, schedule: Q01DX010 (ip), vehicle: saline) 0 of 6.

As to `CS(=O)(=O)OCC(O)C(O)C(O)C(O)COS(C)(=O)=O` (centres undefined), the survivor count under setting [3] is on record as 6 of 6.

For the compound `O=P1(N(CCCl)CCCl)NCCCO1` (centres undefined), the T/C by setting is: (T/C endpoint: median survival time, dose: 20.0 mg/kg/injection, schedule: Q01DX003 (ip), vehicle: saline) 145 % of control; under setting [10], 126 % of control. Besides, the survivor count (T/C endpoint: median survival time, dose: 50.0 mg/kg/injection, schedule: Q01DX007 (ip), vehicle: saline) is 5 of 6.

Regarding `N[C@@H](Cc1ccc(N(CCCl)CCCl)cc1)C(=O)O`, the T/C under setting [1] is 130 % of control.

With `CCOC(=O)NP(=O)(N1CC1)N1CC1`, the T/C under setting [11] was 135 % of control.

As to `CC(N)(CC(=O)O)C(=O)O` (centres undefined), the survivor count by setting is: (T/C endpoint: median survival time, dose: 6.25 mg/kg/injection, schedule: Q01DX009 (ip), vehicle: saline) 6 of 6; (T/C endpoint: median survival time, dose: 25.0 mg/kg/injection, schedule: Q01DX009 (ip), vehicle: saline) 6 of 6; (T/C endpoint: median survival time, dose: 50.0 mg/kg/injection, schedule: Q01DX009 (ip), vehicle: saline) 6 of 6.

Take `NC(Cc1ccc(N(CCCl)CCCl)cc1)C(=O)O` (centres undefined): the survivor count is listed as 6 of 6 under setting [11] and 5 of 6 (T/C endpoint: survival time, mean or median, dose: 20.0 mg/kg/injection, schedule: Q01DX010 (ip), vehicle: saline).

With `Cc1cc2nc3c(=O)[nH]c(=O)nc-3n(CC(O)C(O)C(O)C(O)CO)c2cc1C` (centres undefined), the survivor count is, setting by setting: under setting [3], 6 of 6; under setting [5], 6 of 6.

Turning to `COC1C(OC(=O)/C=C/C=C/C=C/C=C/C(=O)O)CCC2(CO2)C1C1(C)OC1CC=C(C)C` (centres undefined), the survivor count reads like this: under setting [10], 6 of 6; under setting [3], 6 of 6; under setting [4], 6 of 6; under setting [5], 3 of 6.

For `O=c1[nH]cc(F)c(=O)[nH]1`, under setting [11], the T/C is 143 % of control.

Turning to `CN(C)/N=N/c1nc[nH]c1C(N)=O`, the survivor count under setting [6] is given as 5 of 6.

Turning to `CN(C)c1ccc(/C=C/c2ccnc3ccccc23)cc1`, the survivor count is, setting by setting: under setting [12], 6 of 6; (T/C endpoint: survival time, mean or median, dose: 128.0 mg/kg/injection, schedule: Q01DX010 (ip), vehicle: saline) 6 of 6.

In the case of `CN1CC[C@]23c4c5ccc(O)c4O[C@H]2C(=O)CC[C@H]3[C@H]1C5`, the survivor count is recorded as 6 of 6 under setting [7], 6 of 6 under setting [8] and 4 of 6 under setting [12].
